About 3,700 (1.2%) of roughly 300,000 compounds were called active. Inconclusive results, whose numbers are uncertain, are shown with a selection of clear calls. Calls follow the shape of the full dose curve; tested in HEK293 cells. A potency beside an inconclusive call is a rough fit, not a confirmed value.
Test: qHTS for Inhibitors of binding or entry into cells for Lassa Virus; also: nearly all actives have a fitted effect of over 50% in size
Details: Lassa virus pseudotype entry inhibition, cell reporter; activity change, negative = inhibition: at 37.9 µM (top of the series) unless noted
% is scaled to controls: 0 for no effect and ±100 for the full control effect; potency is read from the fitted curve at half-maximal effect.

Compound	Potency	activity change, negative = inhibition
O=C(c1ccco1)N1CCCN(Cc2cn[nH]c2-c2ccc(-c3ccccc3)cc2)CC1	inconclusive: 35.5 µM [inhibitor, single point]	–
O=C(Nc1ccc(Cl)cc1)c1cc(S(=O)(=O)N2CCOCC2)cs1	inconclusive: 29.1 µM [inhibitor, single point]	–
O=C(c1nc2ccccn2c1CN1CCN(c2ccccc2O)CC1)N1CCCC1	–	inconclusive: 9.29% [activator]
COc1ccc(N(CC(=O)NCCc2ccccc2)S(=O)(=O)c2ccc(OC)c(OC)c2)cc1	active: 6.31 µM	–
COc1ccc(C(=O)NCCCOC(C)C)cc1OC1CCN(C(C)=O)CC1	inactive	–
COc1ccc(CCNC(=O)c2ccc3nc(Cc4ccccc4)oc3c2)cc1OC	inconclusive: 25.1 µM [inhibitor, single point]	–
O=C(C1CCCN(S(=O)(=O)c2cccc3nonc23)C1)N1CCN(c2ccccc2Cl)CC1 (stereo not given)	inconclusive: 29.1 µM [inhibitor, single point]	–
O=S(=O)(c1ccc(Br)s1)N1CCN(c2ccc(F)cc2)CC1	inactive	–
COc1ccc(NC(=O)c2cnn(-c3ccc(F)cc3F)c2C2CCN(C(=O)OC(C)(C)C)CC2)cc1Cl	inconclusive: 7.94 µM [inhibitor, partial curve, poor fit]	–
CCOc1ccc(-c2nnc(SCC(=O)Nc3cc(F)ccc3F)o2)cc1	inactive	–
CCOC(=O)CN1C(=O)Nc2ccc(Br)cc2C1c1ccccc1 (stereo not given)	inconclusive: 29.1 µM [inhibitor, single point]	–
O=C(OCCN1CCCCC1)c1ccccc1F	inconclusive: 35.5 µM [activator, single point]	–
Cc1ccccc1NC(=O)CCCCC(=O)Nc1ccccc1C	inconclusive: 1.26 µM [inhibitor, single point]	–
COc1ccc(NC(=O)c2c(-c3ccccc3Cl)noc2C)c(OC)c1	inconclusive: 29.1 µM [inhibitor, single point]	–
Cc1ccccc1NC(=O)c1c(C)oc2ccc(O)c(CN3CCC(C)CC3)c12	inconclusive: 35.5 µM [inhibitor, single point]	–
O=C(COc1ccc([N+](=O)[O-])cc1)NNC(=O)Nc1cccc(F)c1	inconclusive: 20 µM [inhibitor, partial curve, poor fit]	–
Cc1ccc(Nc2nnc(C3C(=O)N(C)C4(C)CC3c3cc(Br)ccc3O4)s2)cc1 (stereo not given)	inconclusive: 7.31 µM [inhibitor, partial curve]	–
CN1CCC(N(C)S(=O)(=O)c2ccc(NC(=O)c3ccc(S(=O)(=O)N(C)C)cc3)cc2)CC1	inconclusive: 35.5 µM [inhibitor, single point]	–
CC(=O)N1c2ccc(S(=O)(=O)N3CCC(C(=O)NCCc4ccc(Cl)cc4)CC3)cc2CC1C (stereo not given)	inconclusive: 3.16 µM [inhibitor, partial curve]	–
COC(=O)c1ccc(/C=N/NC(=O)C(=O)NCc2ccccc2)cc1	inactive	–
COc1ccc(/C=C/C(=O)c2cc(F)ccc2OC(=O)c2ccccc2C)cc1OC	inconclusive: 3.26 µM [inhibitor, full curve]	–
CCOC(=O)c1ccc(NC(=S)N2CCSC2c2ccc(Br)cc2)cc1 (stereo not given)	inactive	–

Molecules shown so far that have a thiophene ring, fused or not:
Compound	Potency	activity change, negative = inhibition
O=C(Nc1ccc(Cl)cc1)c1cc(S(=O)(=O)N2CCOCC2)cs1	inconclusive: 29.1 µM [inhibitor, single point]	–
O=S(=O)(c1ccc(Br)s1)N1CCN(c2ccc(F)cc2)CC1	inactive	–

Not a retest: entries from further up.
Compound	Potency	activity change, negative = inhibition
COc1ccc(N(CC(=O)NCCc2ccccc2)S(=O)(=O)c2ccc(OC)c(OC)c2)cc1	active: 6.31 µM	–
COc1ccc(C(=O)NCCCOC(C)C)cc1OC1CCN(C(C)=O)CC1	inactive	–
COc1ccc(CCNC(=O)c2ccc3nc(Cc4ccccc4)oc3c2)cc1OC	inconclusive: 25.1 µM [inhibitor, single point]	–

More results follow.

Compound	Potency	activity change, negative = inhibition
OCCN(Cc1ccccc1)Cc1cccc(C(F)(F)F)c1	inconclusive: 2.06 µM [activator, partial curve]	–
COc1ccc2c(COC(=O)c3cccc(S(=O)(=O)NCC(C)C)c3)cc(=O)oc2c1	inconclusive: 9.2 µM [inhibitor, partial curve]	–
Cc1noc(N)c1C(=O)Nc1ccccc1F	inactive	–
C=CCCC1CN(Cc2ccco2)S(=O)(=O)c2c(F)cccc2O1 (stereo not given)	inconclusive: 7.91 µM [activator, partial curve, poor fit]	–
COc1ccc(-c2csc(N3CCC(C(N)=O)(N4CCCCC4)CC3)n2)cc1	active: 23.1 µM	–
COc1ccc(-c2cccc(NC(=O)c3ccco3)c2)nn1	inconclusive: 0.126 µM [inhibitor, full curve, poor fit]	–
Cc1ccc(S(=O)(=O)N=Nc2c(O)[nH]c3ccccc23)cc1	inactive	–
COc1ccc(-c2nc(SC)n(S(=O)(=O)c3ccccc3)n2)cc1	inconclusive: 6.31 µM [activator, single point]	–
CCn1nc(C)c(CNC(=O)c2ccc(OC3CCN(Cc4ccccn4)CC3)cc2)c1C	inconclusive: 2.51 µM [inhibitor, full curve, poor fit]	–
CC1=C(c2ccc(C)cc2)S(=O)(=O)N(Cc2ccc(C(=O)Nc3ccccc3C)cc2)C1=O	inconclusive: 2.24 µM [inhibitor, full curve, poor fit]	–
CC(C)Oc1ccc(C(=O)Nc2cccc(S(=O)(=O)N3CCCC3)c2)cc1	inconclusive: 12.6 µM [inhibitor, partial curve]	–
C/C(=N\NC(=O)c1ccc(C)cc1C)c1ccc2c(c1)OCO2	inconclusive: 10.3 µM [activator, partial curve, poor fit]	–
CCCn1nnc(NC(=O)c2ccc(Cl)cc2Cl)n1	inactive	–
NNC(=O)c1cc2ccccc2[nH]1	inconclusive: 0.562 µM [inhibitor, full curve, poor fit]	–
Cc1ccc(NC(=O)CCCN2C(=O)c3cccc4cccc(c34)C2=O)cc1	inconclusive: 1.26 µM [activator, single point]	–
Fc1ccc(-c2cn3cc(Cc4ccccc4Cl)sc3n2)cc1	inconclusive: 31.6 µM [inhibitor, single point]	–
COc1ccc(CCn2c(=O)[nH]c3cc(C(=O)N4CCN(c5ccccc5)CC4)ccc3c2=O)cc1OC	inactive	–
COc1ccc2c(c1)CCC1C2CC[C@@]2(C)C1CC[C@@H]2NCCCCCCN1C(=O)C=CC1=O (stereo not given in full)	inactive	–
Cc1ccc(CCNC(=O)c2ccc(CS(=O)(=O)c3ccc(Cl)cc3)o2)cc1	inactive	–
CCOc1ccccc1NC(=O)n1ncc2cc(Cl)ccc21	inactive	–
O=C(Nc1ccc2c(c1)OCCO2)N1CCN(Cc2ccccc2)CC1	inactive	–
CC(=O)Nc1ccn(-c2ccccc2)n1	inactive	–

Compound	Potency	activity change, negative = inhibition
CCOC(=O)C1=C(C)NC2=C(C(=O)CCC2)C1c1coc2ccccc2c1=O (stereo not given)	inconclusive: 20.6 µM [activator, partial curve, poor fit]	–
Cc1cc2ncn(CC3CC3(Cl)Cl)c2cc1C (stereo not given)	inconclusive: 3.16 µM [inhibitor, single point]	–
CCc1ccc(C2CC(c3ccco3)=NN2S(C)(=O)=O)cc1 (stereo not given)	inconclusive: 17.8 µM [inhibitor, single point]	–
CC1CC(C)CN(S(=O)(=O)c2ccc(F)c(C(=O)Nc3ccc(Cl)cc3F)c2)C1 (stereo not given)	inconclusive: 16.4 µM [inhibitor, single point]	–
CCOC(=O)N1CCN(S(=O)(=O)c2ccc(C(=O)Nc3ccc(F)cc3F)cc2)CC1	inconclusive: 0.92 µM [inhibitor, full curve, poor fit]	–
O=C(Nc1nccs1)c1cccc(N2C(=O)c3cccc4c([N+](=O)[O-])ccc(c34)C2=O)c1	inconclusive: 28.2 µM [inhibitor, single point]	–
CN(C)c1ccc(N/C=C/C(=O)c2ccco2)cc1	inconclusive: 6.51 µM [inhibitor, partial curve, poor fit]	–
CC1(C)CC2CC(C)(CN2/C=N/c2sc3c(c2C#N)CC(C)(C)NC3(C)C)C1 (stereo not given)	inconclusive: 22.4 µM [inhibitor, partial curve, poor fit]	–
Cc1ccc(NC2=C(NC(=O)c3ccccc3)C(=O)c3ccccc3C2=O)cc1Cl	inconclusive: 35.5 µM [inhibitor, single point]	–
CC(=O)c1cccc2c(O)c(C3=Nc4ccccc4C3=O)[nH]c12	inconclusive: 35.5 µM [inhibitor, single point]	–
COCCNC(=O)CCCn1c(=O)[nH]c2ccsc2c1=O	inconclusive: 35.5 µM [activator, single point]	–
CCCCn1c(SCc2c(C)noc2C)nc2cc(S(N)(=O)=O)ccc21	inconclusive: 5.01 µM [inhibitor, partial curve, poor fit]	–
OCCn1nc2c3ccccc3nc-2n(-c2ccccc2)c1=S	inconclusive: 7.94 µM [activator, partial curve, poor fit]	–
O=C(NCc1ccccc1)C1C(=O)N(Cc2ccccc2)C(=O)C1C1(O)CCCC1 (stereo not given)	inconclusive: 10 µM [inhibitor, partial curve, poor fit]	–
COc1cc(OC)c(NC(=O)c2cc(C(C)=O)n3ccccc23)cc1Cl	inconclusive: 5.01 µM [activator, full curve, poor fit]	–
Cc1cccc(-n2cc(CN3CCN(C(=O)c4ncn[nH]4)CC3)c(-c3cccc(F)c3)n2)c1	inconclusive: 1.26 µM [inhibitor, single point]	–
CC(=O)Nc1ccc(NC(=O)c2ccc(CN3CCc4ccccc4C3)cc2)cc1	inactive	–
COc1cc(C(=O)OCC(=O)Nc2cc(C)on2)ccc1OCc1ccccc1Cl	inconclusive: 29.1 µM [inhibitor, single point]	–
CNC(=O)C12CC3CC(C1)CC(c1ccc(C)cc1)(C3)C2	inactive	–
CCc1noc(C)c1C(=O)N1CCC(CCC(=O)Nc2cccc(C)c2)CC1	inconclusive: 0.224 µM [inhibitor, full curve, poor fit]	–
O=C(Nc1ccc(C(=O)N2CCN(c3ccccc3F)CC2)cc1)c1nsc2ccccc12	inconclusive: 0.316 µM [activator, full curve, poor fit]	–

Source: PubChem BioAssay AID540256 (National Center for Advancing Translational Sciences (NCATS), 2011)
